Measurements: publication PMC10163288
This is one part of the list.

B1: il10ra_site1_sap_21_mot_HHH_b1_07962_000000254_0001_41_55_H_._HHH_b2_04450_0001_0000400041_0000001_0_0001 (protein)
chain: SSSSDQREQHLRAIKWFAEWSWELGNRHIARRAVEIAIELAEELNNPEILEELRQLLEELESSSS
B2: il10ra_site1_normal_mot_HHH_b1_05021_af2_000000167_0001_42_56_H_._HHH_b1_01558_af2_0001_0000200008_0000001_0_af2pred_0001 (protein)
chain: SSSSTERTEEVQELLEEAIELLRNGNPEEAREVLEEAREIAEEGNNPLLKWIVEWALRLLSSSSS
B3: il10ra_site1_normal_mot_HHH_b2_01397_000000078_0001_23_39_H_._HHH_b1_06054_0001_0000200024_0000002_0 (protein)
chain: SSSSDEEDRRYVKLTARFARFLLEEGDEEAARRLVRAAEDVAKRANDPELLRELEELLEELSSSS
B4: il10ra_site1_sap_27_mot_HHH_b2_08186_000000021_0001_43_56_H_._HHH_b2_05088_af2_0002_0000900025_0000001_0_0001_af2pred_0001 (protein)
chain: SSSSDDEEKIRLTLRFAEWLLEQGDPEAAEFYLKAAEELARRINNEELEEKIKELQEEVRSSSSS
B5: il10ra_site1_normal_mot_HHH_b2_03220_af2_000000223_0001_23_40_H_._HHH_b1_06979_af2_0001_0000400016_0000001_0 (protein)
chain: SSSSSEAEEVWKLLRRILELRAHGNPEEAERLLEEAERLVEEANNLVLKFAVEAVRRAVRLSSSS
B6: il10ra_site1_sap_25_mot_HHH_b1_02665_000000293_0001_1_18_H_._a4073ed34bad1529e7d46a7d39fa26d0_0001_af2_0001_0000400008_0000001_0_0001 (protein)
chain: SSSSTLERSIEHMLRAIERARELGDEEYVKLALKFVKRSAEALNDEEARRLVEELEERLRSSSSS
B7: il10ra_site1_normal_mot_HHH_b2_07784_af2_000000103_0001_19_36_H_._HHH_b1_01959_0001_0000200017_0000002_0 (protein)
chain: SSSSDLYERVKEAIEEIVRLLREGNPEEAEELAEEAERLVKENNNETTLFQLEFLIRLVQRSSSS
B8: il10ra_site1_sap_31_mot_HHH_b1_05377_000000047_0001_42_55_H_._HHH_b1_03657_0001_0000500029_0000001_0_0001_af2pred_0001 (protein)
chain: SSSSTAEQLVRAALKAAKIAREHGDEEKVEKILEIAKLIARVANNEELEEAIKRFEEELRSSSSS
B9: il10ra_site1_sap_26_mot_HHH_b2_02366_000000098_0001_18_34_H_._249ddc539912ed11994fc964835e7f91_0001_0001_0000100006_0000002_0_0001 (protein)
chain: SSSSDEEERLEELKERLKELLEEGDTRRLSREAQEALRLAIQLGDKETLREIWELIKKAESSSSS
B10: il10ra_site1_normal_mot_HHH_b1_02997_000000220_0001_39_52_H_._HHH_b2_04343_0001_0000400024_0000002_0 (protein)
chain: SSSSSSDLYELSREAAELLFEGNPEEAREVLEEAREIAEEKNNLNHLINIEYLERDVNSSSSSSS

target: il10ra, Q13651; assay: yeast display titration

Apparent Kd, inactive:
B1 no binding seen
B2 no binding seen
B3 no binding seen
B4 no binding seen
B5 no binding seen
B6 no binding seen
B7 no binding seen
B8 no binding seen
B9 no binding seen
B10 no binding seen

Quoted from the results shown for reference:
Apparent Kd, inactive:
B4 no binding seen
B5 no binding seen
